Assay results: the supplement of paper PMC7666118
The list shows a part of the results.

The chains behind the UniProt entries cited, without tags or fusion partners. Where a name states a change or a piece, a line headed by the entry shows the natural chain unless it says otherwise.
UniProt Q15041, whole entry: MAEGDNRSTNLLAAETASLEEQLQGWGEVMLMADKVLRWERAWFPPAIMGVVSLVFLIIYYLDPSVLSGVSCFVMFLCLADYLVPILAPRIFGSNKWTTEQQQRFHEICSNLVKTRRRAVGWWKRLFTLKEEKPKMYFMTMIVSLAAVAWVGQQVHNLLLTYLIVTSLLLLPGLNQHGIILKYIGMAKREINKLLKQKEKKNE
UniProt Q53S33: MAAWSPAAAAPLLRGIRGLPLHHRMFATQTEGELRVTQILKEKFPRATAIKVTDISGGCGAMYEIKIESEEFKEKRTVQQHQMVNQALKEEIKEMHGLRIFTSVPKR
UniProt Q9BSB4: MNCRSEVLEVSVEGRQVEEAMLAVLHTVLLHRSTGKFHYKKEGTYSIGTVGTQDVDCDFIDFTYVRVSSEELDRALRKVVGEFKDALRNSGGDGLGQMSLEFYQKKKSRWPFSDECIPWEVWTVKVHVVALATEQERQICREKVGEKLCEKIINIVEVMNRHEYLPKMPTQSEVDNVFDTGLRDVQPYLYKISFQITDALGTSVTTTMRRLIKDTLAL
UniProt Q96GD4, whole entry: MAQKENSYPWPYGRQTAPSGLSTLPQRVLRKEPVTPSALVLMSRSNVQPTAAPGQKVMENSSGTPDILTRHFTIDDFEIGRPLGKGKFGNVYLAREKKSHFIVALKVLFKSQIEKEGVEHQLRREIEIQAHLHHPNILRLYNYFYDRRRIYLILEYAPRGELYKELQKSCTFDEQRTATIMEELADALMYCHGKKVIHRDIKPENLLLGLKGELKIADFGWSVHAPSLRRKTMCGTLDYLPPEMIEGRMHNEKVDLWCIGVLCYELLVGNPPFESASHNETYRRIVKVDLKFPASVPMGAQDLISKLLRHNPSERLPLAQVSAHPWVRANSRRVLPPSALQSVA
UniProt Q9NXR7, whole entry: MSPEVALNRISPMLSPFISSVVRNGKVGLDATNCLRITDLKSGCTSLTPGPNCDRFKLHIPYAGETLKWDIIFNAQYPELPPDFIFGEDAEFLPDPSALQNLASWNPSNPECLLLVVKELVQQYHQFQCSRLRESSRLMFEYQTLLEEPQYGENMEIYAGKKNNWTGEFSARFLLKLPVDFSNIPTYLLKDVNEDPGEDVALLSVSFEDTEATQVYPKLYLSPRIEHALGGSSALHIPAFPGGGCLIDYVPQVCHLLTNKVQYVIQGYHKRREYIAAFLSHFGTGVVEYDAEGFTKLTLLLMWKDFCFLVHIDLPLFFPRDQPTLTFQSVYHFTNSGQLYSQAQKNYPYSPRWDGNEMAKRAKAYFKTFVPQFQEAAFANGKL
UniProt Q8NCR0: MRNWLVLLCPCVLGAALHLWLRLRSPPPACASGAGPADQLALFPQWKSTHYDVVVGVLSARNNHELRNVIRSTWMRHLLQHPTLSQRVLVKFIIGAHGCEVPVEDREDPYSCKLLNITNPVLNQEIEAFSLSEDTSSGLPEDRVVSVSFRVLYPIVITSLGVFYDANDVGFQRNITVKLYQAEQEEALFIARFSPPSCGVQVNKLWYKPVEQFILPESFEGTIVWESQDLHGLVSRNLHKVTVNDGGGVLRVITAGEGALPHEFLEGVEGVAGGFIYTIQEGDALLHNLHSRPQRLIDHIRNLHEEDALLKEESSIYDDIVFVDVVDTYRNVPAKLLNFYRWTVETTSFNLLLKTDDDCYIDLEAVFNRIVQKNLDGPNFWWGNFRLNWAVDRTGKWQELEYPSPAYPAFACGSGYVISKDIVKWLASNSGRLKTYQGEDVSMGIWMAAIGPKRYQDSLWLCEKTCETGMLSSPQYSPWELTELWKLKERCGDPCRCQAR
UniProt Q6VMQ6: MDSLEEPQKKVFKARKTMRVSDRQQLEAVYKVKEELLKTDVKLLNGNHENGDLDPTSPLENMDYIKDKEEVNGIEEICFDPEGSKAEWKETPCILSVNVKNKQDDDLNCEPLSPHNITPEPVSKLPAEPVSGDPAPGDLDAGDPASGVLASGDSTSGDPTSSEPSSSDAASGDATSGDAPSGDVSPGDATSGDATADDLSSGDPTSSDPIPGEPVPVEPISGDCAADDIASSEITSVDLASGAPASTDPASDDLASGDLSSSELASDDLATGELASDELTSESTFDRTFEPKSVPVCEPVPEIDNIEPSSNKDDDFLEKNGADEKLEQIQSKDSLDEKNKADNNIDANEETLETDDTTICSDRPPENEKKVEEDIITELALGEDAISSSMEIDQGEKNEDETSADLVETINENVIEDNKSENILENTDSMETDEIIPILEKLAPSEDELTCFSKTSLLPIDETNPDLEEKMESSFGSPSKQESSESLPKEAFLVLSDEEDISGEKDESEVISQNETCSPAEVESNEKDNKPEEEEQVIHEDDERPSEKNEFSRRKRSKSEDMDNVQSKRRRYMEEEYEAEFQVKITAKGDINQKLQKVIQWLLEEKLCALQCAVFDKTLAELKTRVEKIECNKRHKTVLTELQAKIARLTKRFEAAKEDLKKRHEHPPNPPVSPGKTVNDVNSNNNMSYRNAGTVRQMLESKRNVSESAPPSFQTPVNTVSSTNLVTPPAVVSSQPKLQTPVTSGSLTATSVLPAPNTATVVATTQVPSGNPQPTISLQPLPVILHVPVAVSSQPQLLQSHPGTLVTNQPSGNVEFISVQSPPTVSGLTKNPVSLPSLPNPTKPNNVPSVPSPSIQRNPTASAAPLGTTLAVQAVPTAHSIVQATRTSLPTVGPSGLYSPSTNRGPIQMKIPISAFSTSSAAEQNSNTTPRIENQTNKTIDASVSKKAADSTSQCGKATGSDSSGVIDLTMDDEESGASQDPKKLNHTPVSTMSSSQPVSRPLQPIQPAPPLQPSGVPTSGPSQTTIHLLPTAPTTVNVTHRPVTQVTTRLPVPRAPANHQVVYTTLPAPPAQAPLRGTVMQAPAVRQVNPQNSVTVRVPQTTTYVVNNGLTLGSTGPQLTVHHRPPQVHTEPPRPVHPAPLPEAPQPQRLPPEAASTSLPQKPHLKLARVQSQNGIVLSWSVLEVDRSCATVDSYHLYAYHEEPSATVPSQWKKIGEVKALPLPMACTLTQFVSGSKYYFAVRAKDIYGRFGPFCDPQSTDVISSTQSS
UniProt Q13535: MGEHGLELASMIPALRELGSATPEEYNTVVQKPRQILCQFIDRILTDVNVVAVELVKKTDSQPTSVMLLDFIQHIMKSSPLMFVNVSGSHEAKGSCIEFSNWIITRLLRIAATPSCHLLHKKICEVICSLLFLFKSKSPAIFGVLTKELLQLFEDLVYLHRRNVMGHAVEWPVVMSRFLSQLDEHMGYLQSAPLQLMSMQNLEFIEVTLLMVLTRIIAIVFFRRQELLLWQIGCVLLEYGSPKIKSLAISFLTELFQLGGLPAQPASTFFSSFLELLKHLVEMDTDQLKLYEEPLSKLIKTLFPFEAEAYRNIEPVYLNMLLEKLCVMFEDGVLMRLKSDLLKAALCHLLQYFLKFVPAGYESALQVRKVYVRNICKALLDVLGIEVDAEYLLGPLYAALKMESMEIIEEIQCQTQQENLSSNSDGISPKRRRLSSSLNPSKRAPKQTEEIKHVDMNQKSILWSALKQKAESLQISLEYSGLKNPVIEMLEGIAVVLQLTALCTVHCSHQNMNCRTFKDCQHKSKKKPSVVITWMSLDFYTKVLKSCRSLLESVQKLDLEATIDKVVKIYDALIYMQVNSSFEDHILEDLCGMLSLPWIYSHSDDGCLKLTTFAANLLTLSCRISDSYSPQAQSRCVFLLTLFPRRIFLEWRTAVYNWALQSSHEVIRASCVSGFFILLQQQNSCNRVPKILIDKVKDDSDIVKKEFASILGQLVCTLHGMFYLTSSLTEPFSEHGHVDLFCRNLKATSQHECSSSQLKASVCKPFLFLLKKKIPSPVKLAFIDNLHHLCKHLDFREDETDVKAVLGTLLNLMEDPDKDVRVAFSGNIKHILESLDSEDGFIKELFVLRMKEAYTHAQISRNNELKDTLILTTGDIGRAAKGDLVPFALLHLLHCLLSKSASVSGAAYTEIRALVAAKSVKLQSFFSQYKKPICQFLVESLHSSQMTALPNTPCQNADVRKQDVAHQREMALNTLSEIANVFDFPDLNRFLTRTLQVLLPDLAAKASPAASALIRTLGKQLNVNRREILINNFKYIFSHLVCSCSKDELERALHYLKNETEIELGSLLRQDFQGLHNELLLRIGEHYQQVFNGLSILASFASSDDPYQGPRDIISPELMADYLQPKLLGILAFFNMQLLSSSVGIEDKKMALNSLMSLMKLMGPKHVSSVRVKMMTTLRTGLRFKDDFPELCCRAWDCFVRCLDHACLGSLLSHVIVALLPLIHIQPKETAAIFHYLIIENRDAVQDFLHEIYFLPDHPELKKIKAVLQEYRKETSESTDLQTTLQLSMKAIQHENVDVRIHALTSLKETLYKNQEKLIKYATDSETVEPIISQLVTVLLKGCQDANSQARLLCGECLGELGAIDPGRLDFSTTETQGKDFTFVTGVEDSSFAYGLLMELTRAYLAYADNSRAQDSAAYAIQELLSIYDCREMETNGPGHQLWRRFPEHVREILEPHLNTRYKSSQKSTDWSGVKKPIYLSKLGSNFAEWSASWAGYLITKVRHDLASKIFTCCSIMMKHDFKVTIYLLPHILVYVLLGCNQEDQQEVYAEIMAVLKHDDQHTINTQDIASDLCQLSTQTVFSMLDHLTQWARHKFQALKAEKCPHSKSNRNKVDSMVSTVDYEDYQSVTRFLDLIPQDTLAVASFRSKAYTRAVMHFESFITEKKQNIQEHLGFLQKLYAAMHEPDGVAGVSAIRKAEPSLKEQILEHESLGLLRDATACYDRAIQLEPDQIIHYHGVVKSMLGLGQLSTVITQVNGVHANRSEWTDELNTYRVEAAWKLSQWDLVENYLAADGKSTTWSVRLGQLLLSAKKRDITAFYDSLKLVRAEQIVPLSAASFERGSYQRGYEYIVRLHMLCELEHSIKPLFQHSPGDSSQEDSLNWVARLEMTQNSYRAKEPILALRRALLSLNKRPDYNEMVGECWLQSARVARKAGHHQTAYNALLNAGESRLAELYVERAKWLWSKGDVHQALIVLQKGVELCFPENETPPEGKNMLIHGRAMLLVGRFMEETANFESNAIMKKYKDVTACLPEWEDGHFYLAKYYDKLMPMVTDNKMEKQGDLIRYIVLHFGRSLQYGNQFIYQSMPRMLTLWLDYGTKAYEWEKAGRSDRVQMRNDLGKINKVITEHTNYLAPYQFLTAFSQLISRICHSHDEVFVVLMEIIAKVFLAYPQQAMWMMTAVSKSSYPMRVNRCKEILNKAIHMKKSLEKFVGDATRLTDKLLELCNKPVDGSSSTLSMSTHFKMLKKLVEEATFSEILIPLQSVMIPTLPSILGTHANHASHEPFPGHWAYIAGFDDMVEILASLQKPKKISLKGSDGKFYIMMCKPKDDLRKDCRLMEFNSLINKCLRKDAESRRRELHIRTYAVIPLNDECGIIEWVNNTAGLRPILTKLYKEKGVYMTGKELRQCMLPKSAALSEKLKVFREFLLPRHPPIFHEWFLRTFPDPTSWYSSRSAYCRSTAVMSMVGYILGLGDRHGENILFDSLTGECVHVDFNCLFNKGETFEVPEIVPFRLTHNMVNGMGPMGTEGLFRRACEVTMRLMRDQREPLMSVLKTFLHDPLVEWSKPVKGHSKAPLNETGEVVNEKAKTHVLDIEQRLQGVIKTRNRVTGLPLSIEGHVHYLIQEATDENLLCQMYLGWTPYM
UniProt Q8N5M1: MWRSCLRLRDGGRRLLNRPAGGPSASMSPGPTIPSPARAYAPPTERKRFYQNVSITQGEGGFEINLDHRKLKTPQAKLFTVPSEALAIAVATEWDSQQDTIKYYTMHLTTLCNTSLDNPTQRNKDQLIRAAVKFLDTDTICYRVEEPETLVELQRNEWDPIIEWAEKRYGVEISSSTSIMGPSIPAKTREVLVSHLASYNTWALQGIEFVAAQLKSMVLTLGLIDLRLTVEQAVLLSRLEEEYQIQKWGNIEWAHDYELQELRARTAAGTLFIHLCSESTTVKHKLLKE
UniProt Q9BUT1: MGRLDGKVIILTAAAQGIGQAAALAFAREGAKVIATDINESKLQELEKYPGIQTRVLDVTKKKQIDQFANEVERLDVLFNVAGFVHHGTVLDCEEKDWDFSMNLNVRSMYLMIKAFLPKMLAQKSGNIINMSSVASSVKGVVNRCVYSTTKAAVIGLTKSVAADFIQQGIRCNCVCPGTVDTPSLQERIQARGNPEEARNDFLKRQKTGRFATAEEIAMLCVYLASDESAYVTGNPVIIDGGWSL
UniProt Q13510, whole entry: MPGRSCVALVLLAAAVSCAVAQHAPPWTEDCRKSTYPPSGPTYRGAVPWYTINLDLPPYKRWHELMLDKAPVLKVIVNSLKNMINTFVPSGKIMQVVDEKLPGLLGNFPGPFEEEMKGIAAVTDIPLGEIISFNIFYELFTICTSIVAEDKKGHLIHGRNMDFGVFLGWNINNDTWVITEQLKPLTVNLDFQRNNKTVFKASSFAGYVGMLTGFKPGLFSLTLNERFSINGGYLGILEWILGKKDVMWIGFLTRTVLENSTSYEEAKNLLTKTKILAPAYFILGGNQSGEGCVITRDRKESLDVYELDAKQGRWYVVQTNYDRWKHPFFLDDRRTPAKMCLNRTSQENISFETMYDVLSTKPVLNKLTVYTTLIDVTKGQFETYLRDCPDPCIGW

compound: COc1ccc(Cn2ccc3ccc(C(=O)NO)cc32)cc1; assay: dose-dependent thermal stabilisation call (2D-TPP, DLPTP, 10% FDR) (binary (1 = stabilised)); higher = stabilised by the compound; conditions: system: HL-60 intact cells; concentration range 0.04-10 µM

Row | Target | dose-dependent thermal stabilisation call
1 | ARL6IP1 (UniProt Q15041) | inactive: 0
2 | B3GALTL (UniProt Q6Y288) | inactive: 0
3 | ARL6IP5 (UniProt O75915) | inactive: 0
4 | B3GALT6 (UniProt Q96L58) | inactive: 0
5 | BOLA3 (UniProt Q53S33) | inactive: 0
6 | C12ORF44 (UniProt Q9BSB4) | inactive: 0
7 | BCL10 (UniProt O95999) | inactive: 0
8 | ARL6 (UniProt Q9H0F7) | inactive: 0
9 | UniProt B4E0R8_HUMAN | inactive: 0
10 | ATP5C1 (UniProt P36542) | inactive: 0
11 | BMS1 (UniProt Q14692) | inactive: 0
12 | C12ORF30 (UniProt Q14CX7) | inactive: 0
13 | ASRGL1 (UniProt Q7L266) | inactive: 0
14 | BRD7 (UniProt Q9NPI1) | inactive: 0
15 | AURKB (UniProt Q96GD4) | inactive: 0
16 | BID (UniProt P55957) | inactive: 0
17 | BSCL2 (UniProt Q96G97) | inactive: 0
18 | ATXN2 (UniProt Q99700) | inactive: 0
19 | BCAP29 (UniProt Q9UHQ4) | inactive: 0

In another format: entries from further up
Row,Target,dose-dependent thermal stabilisation call
5,BOLA3 (UniProt Q53S33),inactive: 0
9,UniProt B4E0R8_HUMAN,inactive: 0
10,ATP5C1 (UniProt P36542),inactive: 0
11,BMS1 (UniProt Q14692),inactive: 0
12,C12ORF30 (UniProt Q14CX7),inactive: 0
13,ASRGL1 (UniProt Q7L266),inactive: 0
14,BRD7 (UniProt Q9NPI1),inactive: 0

Next part

Row | Target | dose-dependent thermal stabilisation call
20 | BRE (UniProt Q9NXR7) | inactive: 0
21 | BRD4 (UniProt O60885) | inactive: 0
22 | AVL9 (UniProt Q8NBF6) | inactive: 0
23 | BXDC2 (UniProt Q8TDN6) | inactive: 0
24 | B3GALNT2 (UniProt Q8NCR0) | inactive: 0
25 | ATF7IP (UniProt Q6VMQ6) | inactive: 0
26 | ATR (UniProt Q13535) | inactive: 0
27 | B3GNT2 (UniProt Q9NY97) | inactive: 0
28 | ATP13A1 (UniProt Q9HD20) | inactive: 0
29 | BCKDHB (UniProt P21953) | inactive: 0
30 | BAD (UniProt Q92934) | inactive: 0
31 | BUB3 (UniProt O43684) | active: 1
32 | BICD1 (UniProt Q96G01) | inactive: 0
33 | ATAD3B (UniProt Q5T9A4) | inactive: 0
34 | ATPAF2 (UniProt Q8N5M1) | inactive: 0
35 | BDH2 (UniProt Q9BUT1) | inactive: 0
36 | ATG3 (UniProt Q9NT62) | inactive: 0
37 | ASAH1 (UniProt Q13510) | inactive: 0
